In the supplement of paper PMC10849652:
Some of the results follow.

Chains of the proteins cited; added tags and fusions are not shown. Lines headed by an entry give the natural chain unless they say otherwise; changes in a name come on top.
UniProt Q8N5M9: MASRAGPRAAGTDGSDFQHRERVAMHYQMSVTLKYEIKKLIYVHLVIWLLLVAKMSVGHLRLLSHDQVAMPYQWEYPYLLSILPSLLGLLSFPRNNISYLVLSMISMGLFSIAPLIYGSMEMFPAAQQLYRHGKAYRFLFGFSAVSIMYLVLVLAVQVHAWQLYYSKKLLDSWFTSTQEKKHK
UniProt Q96CN7: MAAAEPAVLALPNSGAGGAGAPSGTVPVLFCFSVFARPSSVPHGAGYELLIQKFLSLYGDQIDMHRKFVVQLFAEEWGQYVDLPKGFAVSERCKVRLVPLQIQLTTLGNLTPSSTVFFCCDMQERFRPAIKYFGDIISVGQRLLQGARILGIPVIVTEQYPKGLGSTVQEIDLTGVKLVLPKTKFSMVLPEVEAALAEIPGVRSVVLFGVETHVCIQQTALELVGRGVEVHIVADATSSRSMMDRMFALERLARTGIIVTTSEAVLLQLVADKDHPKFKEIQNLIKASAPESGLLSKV
UniProt Q8TEX9: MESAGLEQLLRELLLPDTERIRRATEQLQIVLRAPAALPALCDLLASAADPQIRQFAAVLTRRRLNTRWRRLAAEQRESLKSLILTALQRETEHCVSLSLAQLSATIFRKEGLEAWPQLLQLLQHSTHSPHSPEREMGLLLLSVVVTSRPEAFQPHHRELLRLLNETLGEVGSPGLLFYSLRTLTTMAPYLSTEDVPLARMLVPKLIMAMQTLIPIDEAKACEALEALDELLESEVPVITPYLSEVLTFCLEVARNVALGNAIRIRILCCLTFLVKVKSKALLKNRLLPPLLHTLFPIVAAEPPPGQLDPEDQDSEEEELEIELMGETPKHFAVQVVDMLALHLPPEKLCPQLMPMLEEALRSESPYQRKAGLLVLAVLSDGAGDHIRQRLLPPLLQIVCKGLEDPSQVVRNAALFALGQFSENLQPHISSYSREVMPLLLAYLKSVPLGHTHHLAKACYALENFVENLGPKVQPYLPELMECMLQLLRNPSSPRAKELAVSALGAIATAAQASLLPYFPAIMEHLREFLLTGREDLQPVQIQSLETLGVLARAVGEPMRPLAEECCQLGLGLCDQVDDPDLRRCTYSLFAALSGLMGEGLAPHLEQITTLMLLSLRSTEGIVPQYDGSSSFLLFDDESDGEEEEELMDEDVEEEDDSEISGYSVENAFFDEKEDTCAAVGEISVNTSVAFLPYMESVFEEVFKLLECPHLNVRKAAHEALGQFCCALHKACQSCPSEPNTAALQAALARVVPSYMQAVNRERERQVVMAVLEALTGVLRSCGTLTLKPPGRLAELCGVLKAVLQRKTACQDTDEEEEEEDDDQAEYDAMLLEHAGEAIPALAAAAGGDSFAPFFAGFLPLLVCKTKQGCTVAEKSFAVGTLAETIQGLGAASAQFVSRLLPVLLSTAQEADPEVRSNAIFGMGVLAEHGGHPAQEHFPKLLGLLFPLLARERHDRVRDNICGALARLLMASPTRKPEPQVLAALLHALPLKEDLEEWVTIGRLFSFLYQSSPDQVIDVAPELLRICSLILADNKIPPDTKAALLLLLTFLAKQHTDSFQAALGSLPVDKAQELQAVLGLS
UniProt Q9Y219: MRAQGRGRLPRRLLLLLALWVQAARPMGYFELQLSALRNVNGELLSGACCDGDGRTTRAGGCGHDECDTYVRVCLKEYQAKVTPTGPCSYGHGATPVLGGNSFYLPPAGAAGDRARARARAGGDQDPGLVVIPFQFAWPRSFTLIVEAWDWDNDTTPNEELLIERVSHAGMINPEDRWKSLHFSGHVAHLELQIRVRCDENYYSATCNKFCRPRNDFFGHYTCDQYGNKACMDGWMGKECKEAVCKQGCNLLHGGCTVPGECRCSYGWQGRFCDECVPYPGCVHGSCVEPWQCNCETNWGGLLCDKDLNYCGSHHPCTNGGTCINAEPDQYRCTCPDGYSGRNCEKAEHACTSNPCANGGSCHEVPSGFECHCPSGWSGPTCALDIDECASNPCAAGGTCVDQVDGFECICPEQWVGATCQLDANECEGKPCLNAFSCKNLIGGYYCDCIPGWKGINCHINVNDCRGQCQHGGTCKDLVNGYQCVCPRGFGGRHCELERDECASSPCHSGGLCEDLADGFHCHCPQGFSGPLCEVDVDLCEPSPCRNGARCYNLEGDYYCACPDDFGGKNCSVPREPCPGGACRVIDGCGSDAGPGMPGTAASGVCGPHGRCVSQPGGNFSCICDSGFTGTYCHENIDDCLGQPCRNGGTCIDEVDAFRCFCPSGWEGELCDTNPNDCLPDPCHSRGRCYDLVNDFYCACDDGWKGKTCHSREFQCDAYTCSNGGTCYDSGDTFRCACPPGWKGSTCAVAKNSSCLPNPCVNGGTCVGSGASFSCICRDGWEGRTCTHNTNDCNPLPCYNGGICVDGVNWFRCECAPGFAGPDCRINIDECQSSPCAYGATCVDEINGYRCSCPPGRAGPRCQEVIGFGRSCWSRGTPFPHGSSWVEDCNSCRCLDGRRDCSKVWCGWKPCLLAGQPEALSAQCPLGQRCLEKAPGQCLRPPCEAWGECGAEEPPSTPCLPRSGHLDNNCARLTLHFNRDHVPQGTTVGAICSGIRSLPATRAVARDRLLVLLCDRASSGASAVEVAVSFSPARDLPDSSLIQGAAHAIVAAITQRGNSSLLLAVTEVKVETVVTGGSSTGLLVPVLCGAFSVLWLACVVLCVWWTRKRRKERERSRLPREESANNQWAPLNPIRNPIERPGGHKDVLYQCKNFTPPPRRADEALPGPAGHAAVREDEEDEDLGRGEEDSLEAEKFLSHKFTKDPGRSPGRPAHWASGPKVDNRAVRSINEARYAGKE
UniProt O75449: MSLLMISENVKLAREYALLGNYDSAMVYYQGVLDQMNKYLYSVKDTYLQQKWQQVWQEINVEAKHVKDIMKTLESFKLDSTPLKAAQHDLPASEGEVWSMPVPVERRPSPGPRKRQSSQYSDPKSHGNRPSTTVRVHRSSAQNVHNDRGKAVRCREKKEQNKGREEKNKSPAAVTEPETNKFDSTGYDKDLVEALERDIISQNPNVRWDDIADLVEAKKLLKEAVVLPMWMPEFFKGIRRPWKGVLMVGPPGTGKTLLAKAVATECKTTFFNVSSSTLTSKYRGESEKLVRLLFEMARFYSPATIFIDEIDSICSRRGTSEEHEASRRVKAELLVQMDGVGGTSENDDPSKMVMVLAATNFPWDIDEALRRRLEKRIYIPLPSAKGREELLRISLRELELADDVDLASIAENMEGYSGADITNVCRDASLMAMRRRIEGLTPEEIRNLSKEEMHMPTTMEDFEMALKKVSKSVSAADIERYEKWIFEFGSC
UniProt Q9Y597: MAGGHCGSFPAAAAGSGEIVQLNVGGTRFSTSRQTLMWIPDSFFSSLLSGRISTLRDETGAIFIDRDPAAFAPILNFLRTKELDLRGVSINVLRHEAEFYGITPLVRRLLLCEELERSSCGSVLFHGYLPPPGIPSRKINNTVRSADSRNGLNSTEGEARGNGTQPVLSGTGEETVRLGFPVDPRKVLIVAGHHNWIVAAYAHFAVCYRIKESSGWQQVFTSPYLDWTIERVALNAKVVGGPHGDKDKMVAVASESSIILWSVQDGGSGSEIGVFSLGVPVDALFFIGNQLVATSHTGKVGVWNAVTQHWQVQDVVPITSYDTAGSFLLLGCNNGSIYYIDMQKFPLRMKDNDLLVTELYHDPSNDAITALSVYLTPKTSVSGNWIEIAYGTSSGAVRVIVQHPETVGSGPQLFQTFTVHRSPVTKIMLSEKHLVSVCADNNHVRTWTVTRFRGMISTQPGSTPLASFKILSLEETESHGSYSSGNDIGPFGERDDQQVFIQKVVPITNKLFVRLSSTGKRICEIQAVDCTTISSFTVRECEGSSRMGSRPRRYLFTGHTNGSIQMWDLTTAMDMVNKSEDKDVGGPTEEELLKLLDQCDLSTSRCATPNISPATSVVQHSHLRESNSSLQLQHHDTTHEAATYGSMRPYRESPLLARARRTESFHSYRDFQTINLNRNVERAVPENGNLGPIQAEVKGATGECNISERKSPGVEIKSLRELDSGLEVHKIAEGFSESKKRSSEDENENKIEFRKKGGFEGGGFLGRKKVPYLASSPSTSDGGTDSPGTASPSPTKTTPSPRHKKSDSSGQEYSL
UniProt Q9NV88, whole entry, looked up: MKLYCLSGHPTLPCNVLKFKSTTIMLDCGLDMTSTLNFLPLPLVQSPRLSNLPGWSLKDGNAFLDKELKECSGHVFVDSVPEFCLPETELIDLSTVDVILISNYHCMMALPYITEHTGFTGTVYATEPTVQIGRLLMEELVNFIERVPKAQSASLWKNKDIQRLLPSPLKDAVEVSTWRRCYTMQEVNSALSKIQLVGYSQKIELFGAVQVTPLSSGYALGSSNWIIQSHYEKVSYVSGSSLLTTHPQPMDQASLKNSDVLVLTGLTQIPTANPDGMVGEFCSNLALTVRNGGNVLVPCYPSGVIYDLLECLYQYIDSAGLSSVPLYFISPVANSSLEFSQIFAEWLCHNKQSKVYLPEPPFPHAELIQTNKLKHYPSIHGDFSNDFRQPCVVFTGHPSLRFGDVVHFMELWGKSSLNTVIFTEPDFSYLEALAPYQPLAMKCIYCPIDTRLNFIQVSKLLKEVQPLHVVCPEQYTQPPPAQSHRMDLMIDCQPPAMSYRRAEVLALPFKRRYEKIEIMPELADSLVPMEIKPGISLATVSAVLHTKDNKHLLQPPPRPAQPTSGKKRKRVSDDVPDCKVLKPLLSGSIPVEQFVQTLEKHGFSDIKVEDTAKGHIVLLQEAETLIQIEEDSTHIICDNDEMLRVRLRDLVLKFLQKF
UniProt Q96SY0, whole entry, looked up: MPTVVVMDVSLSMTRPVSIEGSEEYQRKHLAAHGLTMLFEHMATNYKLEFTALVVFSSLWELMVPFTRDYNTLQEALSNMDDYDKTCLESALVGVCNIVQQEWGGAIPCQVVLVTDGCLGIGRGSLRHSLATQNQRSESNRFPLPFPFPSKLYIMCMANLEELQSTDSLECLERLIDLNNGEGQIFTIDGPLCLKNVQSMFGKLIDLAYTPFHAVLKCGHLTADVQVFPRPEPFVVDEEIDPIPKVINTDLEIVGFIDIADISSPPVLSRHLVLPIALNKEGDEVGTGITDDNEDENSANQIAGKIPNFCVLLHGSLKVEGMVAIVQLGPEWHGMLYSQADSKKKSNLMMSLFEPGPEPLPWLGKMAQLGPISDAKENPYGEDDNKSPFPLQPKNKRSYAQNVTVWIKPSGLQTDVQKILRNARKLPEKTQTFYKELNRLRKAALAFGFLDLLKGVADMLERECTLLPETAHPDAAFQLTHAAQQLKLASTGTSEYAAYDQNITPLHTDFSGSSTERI
UniProt Q9H1K1: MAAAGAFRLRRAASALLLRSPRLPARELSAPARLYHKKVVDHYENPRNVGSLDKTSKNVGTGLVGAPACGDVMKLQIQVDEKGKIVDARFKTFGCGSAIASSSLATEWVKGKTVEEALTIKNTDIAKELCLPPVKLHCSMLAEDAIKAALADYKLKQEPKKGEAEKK
UniProt Q75QN2, whole entry, looked up: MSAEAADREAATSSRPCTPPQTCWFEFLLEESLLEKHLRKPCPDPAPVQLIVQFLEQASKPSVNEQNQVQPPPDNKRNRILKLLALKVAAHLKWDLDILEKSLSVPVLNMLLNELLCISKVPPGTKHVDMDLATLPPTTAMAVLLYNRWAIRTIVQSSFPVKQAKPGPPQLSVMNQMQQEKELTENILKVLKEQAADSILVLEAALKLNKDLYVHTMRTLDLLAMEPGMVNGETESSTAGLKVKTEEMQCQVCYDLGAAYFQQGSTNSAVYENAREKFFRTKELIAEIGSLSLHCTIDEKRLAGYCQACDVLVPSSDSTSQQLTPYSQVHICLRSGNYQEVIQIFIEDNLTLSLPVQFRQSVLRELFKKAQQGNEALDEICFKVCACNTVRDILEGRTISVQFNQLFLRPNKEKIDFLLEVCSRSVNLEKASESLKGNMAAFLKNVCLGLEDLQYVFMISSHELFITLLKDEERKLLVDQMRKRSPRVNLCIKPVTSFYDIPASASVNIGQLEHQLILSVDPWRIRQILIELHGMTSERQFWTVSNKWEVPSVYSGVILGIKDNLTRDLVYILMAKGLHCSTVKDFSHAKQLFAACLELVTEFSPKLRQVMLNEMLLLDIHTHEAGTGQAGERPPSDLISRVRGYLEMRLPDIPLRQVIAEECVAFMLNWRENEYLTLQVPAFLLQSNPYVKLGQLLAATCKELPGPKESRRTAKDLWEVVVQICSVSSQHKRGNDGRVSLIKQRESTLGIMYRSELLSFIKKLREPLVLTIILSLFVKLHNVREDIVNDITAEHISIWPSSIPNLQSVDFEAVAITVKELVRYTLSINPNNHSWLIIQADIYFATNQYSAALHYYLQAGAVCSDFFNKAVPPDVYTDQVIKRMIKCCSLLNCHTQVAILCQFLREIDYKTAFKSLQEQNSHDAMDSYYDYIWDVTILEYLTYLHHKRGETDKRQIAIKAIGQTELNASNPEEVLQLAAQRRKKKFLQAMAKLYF

Legend:
Assay in all cases: log2 fold change, soluble protein after heating vs DMSO (PISA); higher = thermal stabilisation; K562 lysate, 10 uM; active = over 0.2 and 3.5 SD of the protein, either way, in both replicates (recomputed)
lapatinib = compound: CS(=O)(=O)CCNCc1ccc(-c2ccc3ncnc(Nc4ccc(OCc5cccc(F)c5)c(Cl)c4)c3c2)o1 [lapatinib]
How it was run: (§1)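 K562 pellets were dounce-homogenised in PBS pH 7.4 containing 1 mM MgCl2, and the crude extract, at 1 mg/mL protein, was exposed to 10 μM compound for 30 min. Aliquots were heated for 3 min across 48°C-58°C, pooled, brought to 0.5% NP-40 at 4°C and spun at 21,000xg for 90 min, with the supernatant taken as soluble protein. TMTpro 16plex LC-MS/MS with equalised channel sums quantified that protein. Values are log-two fold changes in thermal stability relative to solvent controls, taken from duplicates.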

pictilisib = compound: CS(=O)(=O)N1CCN(Cc2cc3nc(-c4cccc5[nH]ncc45)nc(N4CCOCC4)c3s2)CC1 [pictilisib]
How it was run: as §1

crizotinib = compound: C[C@@H](Oc1cc(-c2cnn(C3CCNCC3)c2)cnc1N)c1c(Cl)ccc(F)c1Cl [crizotinib]
How it was run: as §1

[1] = compound: C[C@H](C1=CC=C(C=C1)C(=O)NC2=C3C=CNC3=NC=C2)N
How it was run: as §1

duvelisib = compound: C[C@H](Nc1ncnc2nc[nH]c12)c1cc2cccc(Cl)c2c(=O)n1-c1ccccc1 [duvelisib]
How it was run: as §1

gandotinib = compound: Cc1cc(Nc2cc(CN3CCOCC3)c3nc(C)c(Cc4ccc(Cl)cc4F)n3n2)n[nH]1 [gandotinib]
How it was run: as §1

tozasertib = compound: Cc1cc(Nc2cc(N3CCN(C)CC3)nc(Sc3ccc(NC(=O)C4CC4)cc3)n2)n[nH]1 [tozasertib]
How it was run: as §1

doramapimod = compound: Cc1ccc(-n2nc(C(C)(C)C)cc2NC(=O)Nc2ccc(OCCN3CCOCC3)c3ccccc23)cc1 [doramapimod]
How it was run: as §1

bafetinib = compound: Cc1ccc(NC(=O)c2ccc(CN3CC[C@H](N(C)C)C3)c(C(F)(F)F)c2)cc1Nc1nccc(-c2cncnc2)n1 [bafetinib]
How it was run: as §1

[2] = compound: Cc1cccc(CC(=O)N2CCc3c2ccc(-c2cn(C)c4ncnc(N)c24)c3F)n1
How it was run: as §1

Row | Target | log2 fold change (lapatinib) | log2 fold change (pictilisib) | log2 fold change (crizotinib) | log2 fold change [1] | log2 fold change (duvelisib) | log2 fold change (gandotinib) | log2 fold change (tozasertib) | log2 fold change (doramapimod) | log2 fold change (bafetinib) | log2 fold change [2]
1 | IST1 (UniProt P53990) | inactive: -0.029 | inactive: 0.013 | inactive: 0.023 | inactive: 0 | inactive: -0.004 | inactive: -0.021 | inactive: 0.036 | inactive: 0.025 | inactive: -0.013 | inactive: -0.023
2 | KAT6B (UniProt Q8WYB5) | inactive: 0.056 | inactive: -0.076 | inactive: -0.226 | inactive: -0.135 | inactive: 0.097 | inactive: 0.003 | inactive: -0.045 | inactive: 0.054 | inactive: -0.164 | inactive: 0.158
3 | ITSN1 isoform 8 (UniProt Q15811) | inactive: -0.006 | inactive: -0.073 | inactive: 0.001 | inactive: 0.02 | inactive: 0.031 | inactive: -0.043 | inactive: -0.005 | inactive: 0.003 | inactive: 0.009 | inactive: -0.043
4 | ITGB5 (UniProt P18084) | inactive: 0.014 | inactive: -0.019 | inactive: 0.019 | inactive: 0.014 | inactive: 0.033 | inactive: 0.02 | inactive: 0.046 | inactive: 0.01 | inactive: 0.027 | inactive: -0.012
5 | JAGN1 (UniProt Q8N5M9) | inactive: -0.029 | inactive: 0 | inactive: -0.004 | inactive: -0.073 | inactive: 0.008 | inactive: -0.011 | inactive: -0.09 | inactive: -0.041 | inactive: -0.029 | inactive: -0.008
6 | JMJD1C (UniProt Q15652) | inactive: -0.073 | inactive: -0.128 | inactive: 0.022 | inactive: 0.013 | inactive: -0.026 | inactive: -0.031 | inactive: 0.01 | inactive: -0.032 | inactive: 0.013 | inactive: 0
7 | IPO13 (UniProt O94829) | inactive: -0.022 | inactive: -0.035 | inactive: -0.022 | inactive: -0.015 | inactive: -0.041 | inactive: -0.083 | inactive: 0.002 | inactive: -0.013 | inactive: -0.069 | inactive: 0.023
8 | ISOC1 (UniProt Q96CN7) | inactive: -0.035 | inactive: 0.002 | inactive: -0.027 | inactive: -0.024 | inactive: 0.016 | inactive: 0.013 | inactive: -0.005 | inactive: -0.014 | inactive: 0.024 | inactive: 0.025
9 | KATNAL1 (UniProt Q9BW62) | inactive: -0.053 | inactive: -0.108 | inactive: 0.038 | inactive: -0.094 | inactive: -0.067 | inactive: -0.079 | inactive: 0.124 | inactive: -0.05 | inactive: 0.073 | inactive: -0.146
10 | ITSN2 (UniProt Q9NZM3) | inactive: 0.002 | inactive: -0.09 | inactive: -0.014 | inactive: -0.012 | inactive: 0.014 | inactive: -0.089 | inactive: 0.012 | inactive: 0.026 | inactive: -0.035 | inactive: 0.001
11 | JPT2 isoform 3 (UniProt Q9H910) | inactive: -0.001 | inactive: 0.029 | inactive: 0.032 | inactive: 0.029 | inactive: -0.02 | inactive: 0.031 | inactive: -0.006 | inactive: -0.037 | inactive: -0.017 | inactive: -0.033
12 | KANSL3 (UniProt Q9P2N6) | inactive: -0.459 | inactive: 0.003 | inactive: 0.045 | inactive: -0.026 | inactive: 0.026 | inactive: 0.065 | inactive: 0.041 | inactive: -0.013 | inactive: 0.019 | inactive: -0.012
13 | IPO7 (UniProt O95373) | inactive: -0.026 | inactive: -0.012 | inactive: -0.03 | inactive: -0.115 | inactive: 0.038 | inactive: 0.061 | inactive: -0.027 | inactive: 0.008 | inactive: -0.031 | inactive: 0.111
14 | IQSEC1 (UniProt Q6DN90) | inactive: 0.117 | inactive: -0.001 | inactive: -0.011 | inactive: 0.098 | inactive: -0.025 | inactive: -0.049 | inactive: -0.015 | inactive: -0.016 | inactive: -0.051 | inactive: 0.053
15 | IPO4 isoform 2 (UniProt Q8TEX9) | inactive: -0.003 | inactive: -0.014 | inactive: -0.027 | inactive: -0.065 | inactive: 0.019 | inactive: 0.045 | inactive: 0.002 | inactive: 0.032 | inactive: 0.025 | inactive: 0.017
16 | IPO11 isoform 2 (UniProt Q9UI26) | inactive: -0.019 | inactive: 0 | inactive: -0.05 | inactive: -0.002 | inactive: -0.002 | inactive: -0.022 | inactive: -0.004 | inactive: 0.041 | inactive: -0.058 | inactive: 0
17 | IQGAP2 (UniProt Q13576) | inactive: -0.022 | inactive: -0.015 | inactive: -0.088 | inactive: 0.003 | inactive: -0.008 | inactive: -0.107 | inactive: -0.028 | inactive: 0.009 | inactive: -0.038 | inactive: 0.011
18 | JAG2 (UniProt Q9Y219) | inactive: -0.103 | inactive: -0.035 | inactive: 0.052 | inactive: -0.127 | inactive: -0.073 | inactive: -0.174 | inactive: -0.101 | inactive: 0.32 | inactive: 0.045 | inactive: 0.127
19 | KATNA1 (UniProt O75449) | inactive: 0.023 | inactive: -0.013 | inactive: -0.031 | inactive: 0.017 | inactive: 0.043 | inactive: -0.088 | inactive: 0.021 | inactive: -0.031 | inactive: -0.065 | inactive: 0.013
20 | KCTD3 (UniProt Q9Y597) | inactive: -0.012 | inactive: -0.013 | inactive: -0.012 | inactive: -0.079 | inactive: -0.022 | inactive: 0.044 | inactive: 0.001 | inactive: 0.044 | inactive: -0.054 | inactive: 0.017
21 | JMJD6 isoform 3 (UniProt Q6NYC1) | inactive: -0.001 | inactive: -0.004 | inactive: 0.011 | inactive: -0.006 | inactive: 0.045 | inactive: -0.13 | inactive: -0.008 | inactive: 0.019 | inactive: -0.013 | inactive: -0.048
22 | INTS9 (UniProt Q9NV88) | inactive: -0.003 | inactive: 0.011 | inactive: -0.047 | inactive: -0.129 | inactive: -0.011 | inactive: 0.003 | inactive: 0.001 | inactive: 0.024 | inactive: -0.027 | inactive: 0.078
23 | INTS14 (UniProt Q96SY0) | inactive: 0 | inactive: 0.016 | inactive: 0.005 | inactive: 0.038 | inactive: 0.012 | inactive: -0.035 | inactive: -0.011 | inactive: -0.012 | inactive: 0.009 | inactive: -0.027
24 | ITPA (UniProt Q9BY32) | inactive: -0.018 | inactive: -0.023 | inactive: -0.019 | inactive: -0.089 | inactive: -0.005 | inactive: 0.07 | inactive: -0.021 | inactive: 0.048 | inactive: 0.045 | inactive: 0.037
25 | ISCU (UniProt Q9H1K1) | inactive: 0.029 | inactive: -0.004 | inactive: 0.069 | inactive: 0.03 | inactive: -0.001 | inactive: 0 | inactive: 0.068 | inactive: -0.034 | inactive: 0.001 | inactive: -0.037
26 | KAT5 isoform 3 (UniProt Q92993) | inactive: -0.03 | inactive: 0.062 | inactive: -0.008 | inactive: 0.032 | inactive: 0.013 | inactive: -0.085 | inactive: -0.171 | inactive: 0.009 | inactive: -0.055 | inactive: -0.051
27 | INTS8 (UniProt Q75QN2) | inactive: 0.028 | inactive: 0.104 | inactive: -0.046 | inactive: 0.015 | inactive: -0.051 | inactive: -0.163 | inactive: 0.04 | inactive: 0.021 | inactive: -0.142 | inactive: 0.036
28 | IWS1 (UniProt Q96ST2) | inactive: 0.027 | inactive: -0.039 | inactive: 0.046 | inactive: 0.023 | inactive: -0.021 | inactive: -0.008 | inactive: -0.004 | inactive: 0.023 | inactive: -0.003 | inactive: -0.054
29 | IRAK1 (UniProt P51617) | inactive: 0.023 | inactive: -0.008 | active: 0.799 | inactive: -0.111 | inactive: -0.169 | inactive: 0.26 | inactive: -0.116 | inactive: 0.172 | inactive: -0.036 | inactive: 0.168
30 | IRF2 (UniProt P14316) | inactive: 0.044 | inactive: 0.057 | inactive: -0.004 | inactive: -0.028 | inactive: 0.057 | inactive: 0.125 | inactive: 0.015 | inactive: 0.039 | inactive: 0.029 | inactive: 0.038

Looked up one by one from the list above (two):
Row | Target | log2 fold change (lapatinib) | log2 fold change (pictilisib) | log2 fold change (crizotinib) | log2 fold change [1] | log2 fold change (duvelisib) | log2 fold change (gandotinib) | log2 fold change (tozasertib) | log2 fold change (doramapimod) | log2 fold change (bafetinib) | log2 fold change [2]
29 | IRAK1 (UniProt P51617) | inactive: 0.023 | inactive: -0.008 | active: 0.799 | inactive: -0.111 | inactive: -0.169 | inactive: 0.26 | inactive: -0.116 | inactive: 0.172 | inactive: -0.036 | inactive: 0.168
14 | IQSEC1 (UniProt Q6DN90) | inactive: 0.117 | inactive: -0.001 | inactive: -0.011 | inactive: 0.098 | inactive: -0.025 | inactive: -0.049 | inactive: -0.015 | inactive: -0.016 | inactive: -0.051 | inactive: 0.053
